Drawing on article PMC12533952, this text covers binding for seven substances.

Sequences of proteins named here, by UniProt entry; tags and fusion partners are left off. A change or cut given only in a name is not applied to a line headed by its entry.
UniProt P52294: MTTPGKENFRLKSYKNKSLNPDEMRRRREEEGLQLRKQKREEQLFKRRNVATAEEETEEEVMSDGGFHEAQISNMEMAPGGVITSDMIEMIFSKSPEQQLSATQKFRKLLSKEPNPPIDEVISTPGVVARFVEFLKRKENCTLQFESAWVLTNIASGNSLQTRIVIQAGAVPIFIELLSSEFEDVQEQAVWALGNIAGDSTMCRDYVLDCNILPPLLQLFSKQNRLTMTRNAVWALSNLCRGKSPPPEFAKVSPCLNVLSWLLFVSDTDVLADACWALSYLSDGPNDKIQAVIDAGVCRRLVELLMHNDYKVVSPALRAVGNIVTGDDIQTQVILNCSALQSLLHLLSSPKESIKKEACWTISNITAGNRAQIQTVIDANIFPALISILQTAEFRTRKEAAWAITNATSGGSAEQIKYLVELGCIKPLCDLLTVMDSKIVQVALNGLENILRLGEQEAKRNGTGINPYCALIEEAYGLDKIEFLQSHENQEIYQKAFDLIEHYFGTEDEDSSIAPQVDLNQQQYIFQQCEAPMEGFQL
UniProt P42224: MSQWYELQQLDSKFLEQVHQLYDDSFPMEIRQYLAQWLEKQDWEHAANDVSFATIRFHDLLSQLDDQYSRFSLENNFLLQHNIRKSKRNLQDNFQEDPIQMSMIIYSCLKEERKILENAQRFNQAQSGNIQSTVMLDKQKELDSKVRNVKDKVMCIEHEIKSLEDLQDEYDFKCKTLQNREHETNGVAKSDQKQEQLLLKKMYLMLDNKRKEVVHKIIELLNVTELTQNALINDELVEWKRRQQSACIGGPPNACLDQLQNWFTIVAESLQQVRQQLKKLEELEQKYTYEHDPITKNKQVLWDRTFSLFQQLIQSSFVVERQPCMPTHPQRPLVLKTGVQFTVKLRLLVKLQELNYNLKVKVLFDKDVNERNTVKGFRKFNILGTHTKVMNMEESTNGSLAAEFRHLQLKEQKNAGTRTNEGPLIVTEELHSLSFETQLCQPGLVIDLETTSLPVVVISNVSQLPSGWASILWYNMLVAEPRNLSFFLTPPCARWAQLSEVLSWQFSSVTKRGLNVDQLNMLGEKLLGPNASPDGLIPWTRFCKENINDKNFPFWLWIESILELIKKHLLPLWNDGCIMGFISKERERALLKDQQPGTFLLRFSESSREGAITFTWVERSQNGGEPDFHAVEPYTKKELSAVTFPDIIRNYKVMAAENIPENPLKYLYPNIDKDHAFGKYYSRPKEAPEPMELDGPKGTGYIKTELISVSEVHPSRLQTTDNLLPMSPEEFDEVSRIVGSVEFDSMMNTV
UniProt Q14974: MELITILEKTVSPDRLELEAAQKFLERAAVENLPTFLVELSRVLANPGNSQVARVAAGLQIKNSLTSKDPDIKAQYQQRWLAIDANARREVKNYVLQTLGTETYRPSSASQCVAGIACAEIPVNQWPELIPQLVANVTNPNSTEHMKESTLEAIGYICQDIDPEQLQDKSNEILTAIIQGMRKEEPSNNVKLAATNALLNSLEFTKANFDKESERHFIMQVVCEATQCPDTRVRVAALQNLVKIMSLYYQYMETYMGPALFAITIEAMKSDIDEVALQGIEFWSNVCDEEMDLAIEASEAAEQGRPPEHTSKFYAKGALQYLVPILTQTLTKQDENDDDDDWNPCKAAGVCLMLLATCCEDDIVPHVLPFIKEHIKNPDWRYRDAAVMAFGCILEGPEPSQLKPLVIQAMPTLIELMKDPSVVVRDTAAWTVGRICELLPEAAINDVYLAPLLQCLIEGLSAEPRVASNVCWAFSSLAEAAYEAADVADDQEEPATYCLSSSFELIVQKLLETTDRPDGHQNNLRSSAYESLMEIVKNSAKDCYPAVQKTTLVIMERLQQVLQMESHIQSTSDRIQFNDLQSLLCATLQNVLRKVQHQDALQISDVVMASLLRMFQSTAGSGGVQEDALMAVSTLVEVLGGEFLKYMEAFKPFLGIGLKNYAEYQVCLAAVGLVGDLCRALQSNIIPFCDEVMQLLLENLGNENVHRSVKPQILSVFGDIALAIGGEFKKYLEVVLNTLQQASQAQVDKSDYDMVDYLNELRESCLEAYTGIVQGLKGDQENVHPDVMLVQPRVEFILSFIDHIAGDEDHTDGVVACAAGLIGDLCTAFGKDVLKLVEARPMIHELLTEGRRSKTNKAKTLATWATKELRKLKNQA

Experiment [1] addresses T1, GST-tagged HBoV1 NP1 (human bocavirus 1 (HBoV1)) (UniProt Q3YPH5).
T1 sequence: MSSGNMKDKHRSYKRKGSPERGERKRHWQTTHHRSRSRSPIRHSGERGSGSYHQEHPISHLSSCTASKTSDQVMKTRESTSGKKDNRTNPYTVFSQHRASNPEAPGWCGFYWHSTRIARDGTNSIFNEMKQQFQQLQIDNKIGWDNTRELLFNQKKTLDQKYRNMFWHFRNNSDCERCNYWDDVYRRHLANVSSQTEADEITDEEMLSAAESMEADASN
Description: pull-down; purified GST-NP1 on glutathione beads incubated with HEK293T cell lysate at 4°C overnight; washed three times; Western blot; only the target purified.

Experiment [2] addresses T2, HBoV1 non-structural protein NP1, Flag-tagged (human bocavirus 1 (HBoV1)) (UniProt Q3YPH5).
T2 sequence: T1 sequence
Description: co-IP; HEK293T cells co-transfected with NP1-Flag and Myc-tagged STAT1, KPNA proteins or their truncations; at 24 hpt lysates with anti-Flag magnetic beads overnight; Western blot.

In experiment [3] the target is Karyopherin subunit alpha-1, Myc-tagged (human) (UniProt P52294). Description: co-IP; HEK293T cells transfected with Myc-tagged KPNA1 and HA-tagged KPNB1, with or without NP1-Flag plasmid; co-IP with anti-HA or anti-Myc antibodies.

Results are given in words; binding and its absence hold for the method and conditions named. In cells and extracts the contact can be indirect. Some results given as binding are weak or reduced against the parent protein; the word gives no strength. For some of these results: Sequences can lack the tags named with a protein.

Turning to “Karyopherin subunit alpha-1 (of HEK293T cells) (from UniProt P52294 1-538)”, the binding result in experiment [1] is reported as “binds”.
The same measure, in the same setting: then “Signal transducer and activator of transcription 1 (of HEK293T cells) (from UniProt P42224 1-750)”, with “binds”.
For the substance “Karyopherin subunit alpha-1, Myc-tagged (from UniProt P52294 1-538)”, the binding result in experiment [2] is “binds”.
“KPNA1 truncation, 1–114 AA region (contains the IBB domain) (from UniProt P52294 1-114) (domain or fragment)”: the binding entry in experiment [2] was “binds”.
For “KPNB1, HA-tagged (from UniProt Q14974 1-876)”, the binding entry in experiment [3] is reported as “binds”.
Consider “Signal transducer and activator of transcription 1, Myc-tagged (from UniProt P42224 1-750)”, for which the binding entry in experiment [2] is on record as “binds”.
Same read-out and setting: as for “STAT1 truncation, 318–488 AA region (DNA-binding domain) (from UniProt P42224 318-488) (domain or fragment)”, the entry is “binds”.
